PubChem BioAssay AID1259405, NCATS, 2018

Aim: 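Knock-downs that lift recombinant protein yield in hamster ovary cells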 (primary screen)
Cell system: Chinese hamster CHO-K1 ovary cells with stable secreted eGFP expression
Reagent: single siRNA against mouse genes, 0.8 pmol siRNA per well (2 µl of 400 nM stock)
Timing: 3 days
Read-out: 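Per-well intracellular GFP measured by laser scanning cytometry, plus viability from ATP luminescence, each relative to plate median of non-targeting control wells, in %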
Reading the numbers: GFP, % of control: higher = more GFP per well, higher productivity; viability (ATP), % of control: higher = more viable cells (more ATP)
Active means: 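Called active when intracellular GFP, relative to negative control, is at or above 120%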
In all, the deposit lists about 50,000 reagents; shown is a random part of them. Over the whole deposit, about 4,000 (8%) got an active call. 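Mouse siRNA library applied to hamster cells; one well for each siRNA.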 Reagents against one gene are numbered here. No sequences are given here.

The opening 2 records, to show the layout:
{"Gene": "Caskin2", "siRNA no.": 1, "GFP, % of control": 74.3, "viability (ATP), % of control": 46.6, "outcome": "inactive"}
{"Gene": "Caskin2", "siRNA no.": 2, "GFP, % of control": 76.9, "viability (ATP), % of control": 79, "outcome": "inactive"}

Results, from the first entry:
{"Gene": "Caskin2", "siRNA no.": 1, "GFP, % of control": 74.3, "viability (ATP), % of control": 46.6, "outcome": "inactive"}
{"Gene": "Caskin2", "siRNA no.": 2, "GFP, % of control": 76.9, "viability (ATP), % of control": 79, "outcome": "inactive"}
{"Gene": "Caskin2", "siRNA no.": 3, "GFP, % of control": 50.1, "viability (ATP), % of control": 21.7, "outcome": "inactive"}
{"Gene": "Pih1d2", "siRNA no.": 1, "GFP, % of control": 97.5, "viability (ATP), % of control": 78.7, "outcome": "inactive"}
{"Gene": "Pih1d2", "siRNA no.": 2, "GFP, % of control": 50.7, "viability (ATP), % of control": 54.5, "outcome": "inactive"}
{"Gene": "Pih1d2", "siRNA no.": 3, "GFP, % of control": 71.8, "viability (ATP), % of control": 88.4, "outcome": "inactive"}
{"Gene": "Tomm70a", "siRNA no.": 1, "GFP, % of control": 110, "viability (ATP), % of control": 117, "outcome": "inactive"}
{"Gene": "Tomm70a", "siRNA no.": 2, "GFP, % of control": 74.2, "viability (ATP), % of control": 74.1, "outcome": "inactive"}
{"Gene": "Cdr1os", "siRNA no.": 1, "GFP, % of control": 101, "viability (ATP), % of control": 122, "outcome": "inactive"}
{"Gene": "Cdr1os", "siRNA no.": 2, "GFP, % of control": 92.4, "viability (ATP), % of control": 92.9, "outcome": "inactive"}
{"Gene": "Cdr1os", "siRNA no.": 3, "GFP, % of control": 141, "viability (ATP), % of control": 138, "outcome": "active"}
{"Gene": "Vmn1r42", "siRNA no.": 1, "GFP, % of control": 104, "viability (ATP), % of control": 95.2, "outcome": "inactive"}
{"Gene": "Vmn1r42", "siRNA no.": 2, "GFP, % of control": 114, "viability (ATP), % of control": 58.1, "outcome": "inactive"}
{"Gene": "Vmn1r42", "siRNA no.": 3, "GFP, % of control": 78.9, "viability (ATP), % of control": 88.4, "outcome": "inactive"}
{"Gene": "Drc10", "siRNA no.": 1, "GFP, % of control": 64.6, "viability (ATP), % of control": 42.6, "outcome": "inactive"}
{"Gene": "Drc10", "siRNA no.": 2, "GFP, % of control": 77.6, "viability (ATP), % of control": 85.3, "outcome": "inactive"}
{"Gene": "Drc10", "siRNA no.": 3, "GFP, % of control": 112, "viability (ATP), % of control": 103, "outcome": "inactive"}
